Test results: patent US7342033B2, “Use of riluzole for the treatment of multiple sclerosis” (Vereniging Voor Christelijk Wetenschappelijk Onderwijs, priority 1999, dated 2008)

Tested on: multiple sclerosis patients
[1] = brain MRI, second year, riluzole 2×50 mg daily
[2] = untreated year versus riluzole year

Nc1nc2ccc(OC(F)(F)F)cc2s1 [riluzole, (6-trifluoromethoxy)-2-benzothiazolamine)]
Increase in T1 lesion load, Δ 1-2 yr, mean [1]: mean 24% | Increase in T1 lesion load, Δ 1-2 yr, median [1]: median 6% | Increase in T2 lesion load, Δ 1-2 yr, mean [1]: mean 12% | Increase in T2 lesion load, Δ 1-2 yr, median [1]: median: 10% | Effect on EDSS score (riluzole 2×50 mg daily, one year): No effect | Increase in T2 lesion load in the brain under treatment (in words) (riluzole year compared with untreated year): did not alter much | Accumulation of hypointense (T1) lesion under treatment (in words) (riluzole year compared with untreated year, p=0.66): trend towards reduction | Change in spinal cord area, Δ 1-2 yr (percent) (second year, riluzole 2×50 mg daily): −0.15% | Change in spinal cord area, Δ 1-2 yr (second year, riluzole 2×50 mg daily, mean, baseline 66.7 mm^2): −0.2 mm^2 | Spinal cord area, difference Δ 0-1 yr versus Δ 1-2 yr [2]: −1.5 mm^2 | Spinal cord area, difference Δ 0-1 yr versus Δ 1-2 yr (percent) [2]: −2.15% | T1 lesion load, difference Δ 0-1 yr versus Δ 1-2 yr, mean [2]: mean 53% | T1 lesion load, difference Δ 0-1 yr versus Δ 1-2 yr, median [2]: median 24% | T2 lesion load, difference Δ 0-1 yr versus Δ 1-2 yr, mean [2]: mean 28% | T2 lesion load, difference Δ 0-1 yr versus Δ 1-2 yr, median [2]: median 21.6%
